The target in one test is myc-tagged VAPB (UniProt O95292). In words: co-IP; HEK293 cells transfected with myc-VAPB and HA-FUS (wild type, R521C or R518K); VAPB immunoprecipitated via the myc tag, FUS probed via the HA tag; 50 mM Tris-citrate pH 7.4, 150 mM NaCl, 1% Triton X-100, 5 mM EGTA, 5 mM EDTA, 4 C.
Test [1] concerns the target T1, haemagglutinin (HA)-tagged PTPIP51 (UniProt Q96TC7).
T1 sequence: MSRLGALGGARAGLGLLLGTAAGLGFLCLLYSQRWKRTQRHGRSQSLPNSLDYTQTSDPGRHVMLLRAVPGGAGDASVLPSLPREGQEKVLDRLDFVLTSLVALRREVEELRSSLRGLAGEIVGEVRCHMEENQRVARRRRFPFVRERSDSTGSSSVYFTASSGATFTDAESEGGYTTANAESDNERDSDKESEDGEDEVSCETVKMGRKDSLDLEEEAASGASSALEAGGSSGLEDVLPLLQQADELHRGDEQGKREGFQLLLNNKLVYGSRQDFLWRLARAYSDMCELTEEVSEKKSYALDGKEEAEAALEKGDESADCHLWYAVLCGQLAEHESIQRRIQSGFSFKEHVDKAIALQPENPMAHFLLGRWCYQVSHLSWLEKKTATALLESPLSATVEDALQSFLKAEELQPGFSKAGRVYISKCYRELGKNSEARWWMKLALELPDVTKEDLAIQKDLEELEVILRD
Description: co-IP; cells transfected with HA-PTPIP51 and control vector, EGFP-FUS, EGFP-FUSR521C, EGFP-FUSR518K or EGFP-FUSdeltaC; PTPIP51 immunoprecipitated by the HA tag, endogenous VAPB detected by immunoblot; 50 mM Tris-citrate pH 7.4, 150 mM NaCl, 1% Triton X-100, 5 mM EGTA, 5 mM EDTA, 4 C. (A western blot detects proteins with antibodies after separation by electrophoresis.)

Amino acid sequences for entries named in this document (tags omitted). A change or cut given only in a name is not applied to a line headed by its entry.
UniProt O95292: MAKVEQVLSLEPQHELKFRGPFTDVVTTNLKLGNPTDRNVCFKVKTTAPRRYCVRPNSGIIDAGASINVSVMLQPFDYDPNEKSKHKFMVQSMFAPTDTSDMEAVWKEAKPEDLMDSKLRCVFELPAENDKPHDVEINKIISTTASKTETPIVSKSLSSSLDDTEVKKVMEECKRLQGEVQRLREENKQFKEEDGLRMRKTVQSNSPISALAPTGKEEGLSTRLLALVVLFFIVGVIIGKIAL
UniProt P35637: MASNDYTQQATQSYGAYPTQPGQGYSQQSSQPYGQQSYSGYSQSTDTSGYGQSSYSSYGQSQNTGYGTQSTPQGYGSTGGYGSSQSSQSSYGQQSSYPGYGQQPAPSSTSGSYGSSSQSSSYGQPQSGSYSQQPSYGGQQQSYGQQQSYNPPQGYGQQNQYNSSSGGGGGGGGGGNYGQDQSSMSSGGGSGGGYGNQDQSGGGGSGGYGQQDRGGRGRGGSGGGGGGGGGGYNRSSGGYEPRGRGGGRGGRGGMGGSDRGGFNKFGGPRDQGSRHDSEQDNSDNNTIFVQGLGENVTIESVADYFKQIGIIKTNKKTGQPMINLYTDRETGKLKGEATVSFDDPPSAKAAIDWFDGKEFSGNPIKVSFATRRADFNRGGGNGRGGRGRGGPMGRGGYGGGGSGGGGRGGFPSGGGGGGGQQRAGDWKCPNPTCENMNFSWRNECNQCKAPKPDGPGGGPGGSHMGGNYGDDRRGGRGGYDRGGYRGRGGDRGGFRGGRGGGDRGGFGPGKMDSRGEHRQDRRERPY
UniProt Q9QY76: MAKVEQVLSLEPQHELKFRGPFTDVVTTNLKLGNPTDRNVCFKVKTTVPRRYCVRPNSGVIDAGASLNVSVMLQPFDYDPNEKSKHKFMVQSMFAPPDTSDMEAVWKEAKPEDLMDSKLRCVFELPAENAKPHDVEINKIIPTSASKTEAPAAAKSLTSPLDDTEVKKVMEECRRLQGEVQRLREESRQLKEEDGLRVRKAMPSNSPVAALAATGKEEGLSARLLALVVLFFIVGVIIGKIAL

The target in test [2] is T2, protein tyrosine phosphatase interacting protein 51 (PTPIP51), endogenous in NSC34 cells and mouse spinal cord motor neurons (mouse (endogenous in NSC34 cells and mouse spinal cord)) (UniProt Q3UJU9).
T2 sequence: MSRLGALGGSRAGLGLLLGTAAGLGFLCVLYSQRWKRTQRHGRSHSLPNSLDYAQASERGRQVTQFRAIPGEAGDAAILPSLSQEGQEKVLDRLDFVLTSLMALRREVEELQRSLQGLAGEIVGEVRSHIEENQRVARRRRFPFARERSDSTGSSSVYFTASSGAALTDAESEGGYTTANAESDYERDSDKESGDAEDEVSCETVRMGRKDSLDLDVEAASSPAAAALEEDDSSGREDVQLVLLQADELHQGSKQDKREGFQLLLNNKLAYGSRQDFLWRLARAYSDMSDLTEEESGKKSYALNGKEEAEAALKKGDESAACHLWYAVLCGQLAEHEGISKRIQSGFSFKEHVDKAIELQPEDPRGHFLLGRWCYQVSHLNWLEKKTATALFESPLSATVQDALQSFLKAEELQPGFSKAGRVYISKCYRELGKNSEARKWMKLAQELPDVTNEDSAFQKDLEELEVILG
Description: proximity ligation; in situ, 30-um sections of paraformaldehyde-fixed mouse spinal cord (FUS transgenic and non-transgenic littermates), lumbar motor neurons, rabbit anti-VAPB and rat anti-PTPIP51 antibodies, Duolink In Situ Brightfield kit.

Test [3] has as its target T2, protein tyrosine phosphatase interacting protein 51 (PTPIP51), endogenous in NSC34 cells and mouse spinal cord motor neurons (mouse (endogenous in NSC34 cells and mouse spinal cord)). Description: proximity ligation; in situ, paraformaldehyde-fixed NSC34 cells probed with rabbit anti-VAPB and rat anti-PTPIP51 antibodies, Duolink In Situ Orange kit; cells untransfected, transfected with EGFP control or EGFP-FUS (wild type, R521C, R518K), or treated with vehicle, 1 uM AR-A014418 or 100 nM CT99021 for 16 h.

Results are given in words; binding and its absence hold for the method and conditions named. In cells and extracts the contact can be indirect. Some results given as binding are weak or reduced against the parent protein; the word gives no strength. For part of these data: Sequences can lack the tags named with a protein.

Consider “HA-tagged familial ALS mutant FUS R518K (from UniProt P35637 1-526)”, for which the binding entry with myc-tagged VAPB is recorded as “no binding”.

Take “HA-tagged familial ALS mutant FUS R521C (from UniProt P35637 1-526)”: the binding entry with myc-tagged VAPB was “no binding”.

In the case of “HA-tagged wild-type FUS (fused in sarcoma) (from UniProt P35637 1-526)”, in the test with myc-tagged VAPB, the binding entry is listed as “no binding”.

As to “endogenous VAPB of the transfected cells used for immunoprecipitation of HA-PTPIP51 (from UniProt Q9QY76 1-243)”, the binding entry in test [1] was “binds”.

“vesicle-associated membrane protein-associated protein B (VAPB), endogenous in NSC34 cells and mouse spinal cord motor neurons (from UniProt Q9QY76 1-243)”: the binding result in test [2] and in test [3] was “binds” in each case.
